The term AC50 denotes the concentration at which the activity in the assay is half-maximal.

Some of the results follow. Shown are side measurements of this screen, not its main read-out; they come without a call. Most of these compounds were active or inconclusive in the main read-out, so they are no random draw. Words in brackets tell the shape of the fitted curve; partial curves, single points and poor fits give uncertain potencies.

This passage reports AC50 results from PubChem BioAssay AID1487 (National Center for Advancing Translational Sciences (NCATS), 2009).

A short description of the test: qHTS Assay for Modulators of Lamin A Splicing. The note with it: HeLa LMNA splicing GFP/RFP minigene ratio, 48 h. Put shortly:
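S3 HeLa stable clones carrying a lamin A-EGFP splicing minigene plus DsRed2 were seeded at 600 cells/well in Opti-MEM with 2% FBS, pin-dosed and incubated 48 h at 37°C. Acumen cytometry (488 nm) gave the GFP/RFP total-intensity ratio.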

Setting [1] is: measured here: GFP splicing reporter channel.
Where [2] appears, read: measured here: RFP viability control channel.

On to `O=C(CCOc1ccccc1)N(Cc1cccnc1)c1nc2ccc(F)cc2s1`, for which the half-maximal activity concentration (AC50) under setting [1] was 17.8 µM [falling, single point].

For the molecule `CCOc1ccc(/C=C/C2=NNC(=O)CC2)cc1`, the half-maximal activity concentration (AC50) was 1.41 µM [rising, partial curve] under setting [1] and 0.891 µM [rising, partial curve] under setting [2].

On to `O=C(Nc1ccc(F)cc1)N1CCN(C/C=C/c2ccccc2)CC1`, for which the AC50 runs as follows: under setting [1], 12.6 µM [rising, partial curve]; under setting [2], 35.5 µM [rising, single point].

On to `CC(=O)NNc1ncnc2ccccc12`, for which the AC50 under setting [2] is 8.91 µM [rising, partial curve].

For `CCOc1ncccc1C(=O)OCc1ccc(C(=O)OC)o1`, the AC50 under setting [2] was 35.5 µM [rising, single point].

Consider `CCOc1ccc(C(NC(C)=O)c2ccc(OC)c(OC)c2)cc1` (stereo not given), for which the half-maximal activity concentration (AC50) reads like this: under setting [1], 35.5 µM [falling, single point]; under setting [2], 0.00316 µM [falling, full curve, poor fit].

Consider `Cc1ccc(NCc2nnc(SCC(=O)c3ccccc3)o2)c(C)c1`, for which the half-maximal activity concentration (AC50) under setting [1] was 15.8 µM [rising, partial curve] and the concentration at half-maximal activity (AC50) under setting [2] was 11.2 µM [rising, partial curve].

In the case of `Cc1cccc(NS(=O)(=O)c2ccc(NC(=O)N3CCCC3)cc2)c1`, the concentration at half-maximal activity (AC50) under setting [1] was 0.0224 µM [falling, full curve, poor fit].

In the case of `CCOC(=O)CCNC(=O)CNC(=O)OCc1ccccc1`, under setting [1], the concentration at half-maximal activity (AC50) was 3.98 µM [falling, single point].

For the molecule `O=C(CN1CCN(c2ccc(O)cc2)CC1)NC1CCCc2ccccc21` (stereo not given), under setting [2], the AC50 is 15.8 µM [rising, partial curve, poor fit].

Regarding `COc1ccc(Nc2nc(-c3c[nH]c4ccccc34)cs2)cc1`, the half-maximal activity concentration (AC50) under setting [1] was 0.708 µM [rising, full curve, poor fit] and the concentration at half-maximal activity (AC50) under setting [2] was 1.12 µM [rising, full curve, poor fit].

As to `CC(C)(C)C1CCc2c(C(=O)NNC(=O)/C=C/C(=O)O)csc2C1` (stereo not given), the half-maximal activity concentration (AC50) under setting [2] was 15.8 µM [rising, single point].

Turning to `COc1ccc(C(=O)Nc2nc(-c3ccc(S(=O)(=O)N4CCOCC4)cc3)cs2)cc1`, the AC50 was 14.1 µM [rising, single point] under setting [1] and 11.2 µM [rising, single point] under setting [2].

Take `COc1cc(OC)cc(C(=O)N[C@H](C(=O)OCc2cc(=O)oc3cc(C)ccc23)C(C)C)c1`: the half-maximal activity concentration (AC50) runs as follows: under setting [1], 1.58 µM [rising, partial curve]; under setting [2], 5.62 µM [rising, single point].

In the case of `Cc1ccc(C(=O)C(C)CN2CCCCC2)cc1` (stereo not given), the AC50 under setting [1] is 22.4 µM [falling, single point] and the half-maximal activity concentration (AC50) under setting [2] is 12.6 µM [rising, partial curve, poor fit].

Regarding `O=C(c1ccco1)N1CCN(c2ccc(Cl)cc2)CC1`, the concentration at half-maximal activity (AC50) under setting [2] was 8.91 µM [rising, partial curve].

As for `COc1cc(C(=O)c2c(C)c(CCC#N)n3ccccc23)cc(OC)c1OC`, the AC50 under setting [2] was 0.631 µM [rising, partial curve].

Take `O=C(N/N=C/c1ccc(Br)cc1)c1cc[n+](Cc2ccccc2)cc1`: under setting [1], the concentration at half-maximal activity (AC50) is 3.98 µM [falling, single point].

Consider `O=C(CSc1nc2ccccc2c2nc3ccccc3n12)NCc1ccco1`, for which, under setting [2], the AC50 was 10 µM [rising, partial curve, poor fit].

For `CC1CN(S(=O)(=O)c2ccc(C(=O)Nc3sccc3C(N)=O)cc2)CC(C)O1` (stereo not given), the AC50 was 6.31 µM [rising, full curve, poor fit] under setting [1] and 11.2 µM [rising, partial curve] under setting [2].

For `CCCc1ccc(Oc2cn[nH]c2-c2ccc(O)cc2O)cc1`, the AC50 is 22.4 µM [rising, single point] under setting [1] and 15.8 µM [rising, partial curve] under setting [2].

As to `COc1cccc(-c2cc(C(F)(F)F)nc(NCc3ccco3)n2)c1`, the concentration at half-maximal activity (AC50) by setting is: under setting [1], 35.5 µM [rising, single point]; under setting [2], 35.5 µM [rising, single point].

As for `CCOC(=O)Cn1c(=O)n(-c2ccccc2OC)c2nc(-c3ccc(C(C)C)cc3)nc(C(N)=O)c21`, the AC50 under setting [1] is 14.1 µM [falling, partial curve, poor fit] and the AC50 under setting [2] is 10 µM [falling, partial curve, poor fit].

On to `O=C(CN1CCCCC1)Nc1nnc(-c2ccc([N+](=O)[O-])cc2)s1`, for which the concentration at half-maximal activity (AC50) is, setting by setting: under setting [1], 1.26 µM [falling, full curve]; under setting [2], 1.12 µM [falling, full curve].

For `CN1C(=O)CC(N2CCN(C(=O)CN3CCCC3)CC2)C1=O` (stereo not given), the AC50 was 35.5 µM [falling, single point] under setting [1] and 35.5 µM [falling, single point] under setting [2].

Take `COc1ccccc1-n1cnc2c(c1=O)c1nc3ccccc3nc1n2-c1ccc(C)cc1`: the AC50 under setting [1] is 8.91 µM [rising, partial curve, poor fit].

As for `Cc1cccc(-c2nc(CSCC(=O)NCc3cccs3)c(C)o2)c1`, under setting [2], the AC50 was 15.8 µM [rising, single point].

On to `COCCNC(=O)/C(C#N)=C/C(C)=C/c1ccccc1`, for which the AC50 is 1.41 µM [rising, partial curve] under setting [1] and 2.24 µM [rising, single point] under setting [2].

`CC(=O)[C@H]1CC[C@@H]2[C@H]3CC=C4C[C@@H](O)CC[C@]4(C)[C@H]3CC[C@]12C`: the AC50 was 3.16 µM [falling, single point] under setting [1] and 2 µM [falling, full curve] under setting [2].

Consider `O=S(=O)(c1cccc(NC(=S)N2CCN(c3ccc(F)cc3)CC2)c1)C(F)F`, for which the AC50 under setting [2] is 10 µM [rising, partial curve, poor fit].

As for `O=C(Oc1ccccc1C(=O)Nc1ccccc1)c1ccc(Br)c([N+](=O)[O-])c1`, the half-maximal activity concentration (AC50) by setting is: under setting [1], 15.8 µM [rising, partial curve, poor fit]; under setting [2], 14.1 µM [rising, single point].

In the case of `Cc1nc2ccn(Cc3ccco3)c(=O)c2cc1C(=O)NCc1ccc(F)cc1`, the AC50 is 1.41 µM [rising, full curve] under setting [1] and 1 µM [rising, full curve] under setting [2].

As for `Cc1c(Cl)cccc1-n1ncc(C(=O)N2CCOCC2)c1C1CCN(C(=O)OC(C)(C)C)CC1`, the concentration at half-maximal activity (AC50) under setting [1] was 0.282 µM [rising, full curve, poor fit].

Regarding `O=C(NC(=S)N1CCN(C/C=C/c2ccccc2)CC1)c1ccco1`, the AC50 under setting [1] was 11.2 µM [rising, partial curve, poor fit].

On to `Cc1ccc(OCC(=O)OCc2cc(=O)n3nc(C4CC4)sc3n2)cc1`, for which the AC50 under setting [2] is 12.6 µM [falling, partial curve].

For `CCOc1ncccc1C(=O)NCc1ccc(OC)cc1`, under setting [2], the half-maximal activity concentration (AC50) was 12.6 µM [rising, single point].

Turning to `Cc1ccc(-n2nc(C)c(Sc3ccccc3[N+](=O)[O-])c2N)cc1`, the concentration at half-maximal activity (AC50) is 14.1 µM [rising, single point] under setting [1] and 35.5 µM [rising, single point] under setting [2].

Consider `COc1ccc(C(=O)NC(c2ccc(Cl)cc2)c2cc(Cl)c3cccnc3c2O)cc1` (stereo not given), for which the AC50 is 1.41 µM [falling, full curve, poor fit] under setting [1] and 1 µM [falling, full curve, poor fit] under setting [2].

For `COc1ccc(N2CC(O)=C(c3nc(-c4ccc(F)cc4)cs3)C2=N)cc1Cl`, the half-maximal activity concentration (AC50) under setting [2] is 3.55 µM [rising, partial curve, poor fit].

Take `N=c1c2c(n(Cc3cccc(Cl)c3)c3c1CCC3)CCCC2`: the AC50 was 2.82 µM [rising, single point] under setting [1] and 2.51 µM [rising, partial curve] under setting [2].

In the case of `Cc1ccccc1NC(=O)CSc1nc2cc3c(cc2cc1C)CCC3`, the half-maximal activity concentration (AC50) was 7.94 µM [falling, partial curve] under setting [1] and 8.91 µM [falling, partial curve] under setting [2].

For the molecule `CCCCCCCCS(=O)CCC(=O)O` (stereo not given), the AC50 under setting [2] was 0.562 µM [falling, full curve].

Take `COc1cc(Cl)c(C)cc1NC(=O)c1cnc(N2CCOCC2)c2ccccc12`: the AC50 under setting [2] is 14.1 µM [rising, single point].

Turning to `CC(=O)c1ccc(NC(=O)C2Cc3ccccc3CN2C(=O)c2ccccc2)cc1` (stereo not given), the concentration at half-maximal activity (AC50) under setting [2] is 0.00447 µM [rising, full curve, poor fit].

As for `O=C(C1CCC(CNc2nc(=S)[nH]c3ccccc23)CC1)N1CCN(c2ccccn2)CC1` (stereo not given), the AC50 reads like this: under setting [1], 0.501 µM [rising, partial curve]; under setting [2], 14.1 µM [rising, partial curve].

Consider `CCOc1ccc(NC(=O)c2ccc(F)c(S(=O)(=O)N3CCN(c4ccccn4)CC3)c2)cc1`, for which the AC50 is 4.47 µM [rising, full curve, poor fit] under setting [1] and 6.31 µM [rising, full curve] under setting [2].

For the molecule `O=S(=O)(Nc1nc2ccccc2nc1N1CCN(c2ccccc2)CC1)c1ccc(F)cc1`, the half-maximal activity concentration (AC50) under setting [1] is 20 µM [rising, single point] and the half-maximal activity concentration (AC50) under setting [2] is 35.5 µM [rising, single point].

`Cc1ccc(-c2noc(CSc3nnc(Cc4cccs4)n3-c3ccccc3)n2)cc1`: the AC50 was 3.16 µM [rising, partial curve, poor fit] under setting [1] and 15.8 µM [rising, partial curve, poor fit] under setting [2].

For `COc1ccc(C(=O)NC2(C(F)(F)F)NC(=O)N(CCCc3ccccc3)C2=O)c(OC)c1OC` (stereo not given), the AC50 is, setting by setting: under setting [1], 10 µM [rising, partial curve, poor fit]; under setting [2], 20 µM [rising, partial curve].

On to `O=C(Nc1ccc(Cl)cc1)N1CCC(c2ccccc2)C1` (stereo not given), for which the AC50 under setting [2] was 35.5 µM [falling, single point].

Take `Oc1ccc(/C=N/Nc2nc(N3CCCC3)nc(N3CCCC3)n2)cc1O`: the half-maximal activity concentration (AC50) by setting is: under setting [1], 31.6 µM [falling, single point]; under setting [2], 31.6 µM [falling, single point].

For the molecule `CCOc1ccccc1NC(=O)c1c(NCc2sccc2C)sc2c1CCC(C)C2` (stereo not given), under setting [1], the half-maximal activity concentration (AC50) was 20 µM [falling, single point].
